In paper PMC4887716 (Iranian Journal of Basic Medical Sciences, 2016):

How the values were obtained:
P-gp [1] = conditions: in situ rat brain perfusion; cited from earlier work
P-gp [2] = conditions: Caco-2 cells, 10 µM clemastine, 48 hr
P-gp [3] = conditions: in silico model; cited from earlier work
[4] = oral dose 2.68 mg, considering the intestinal fluid volume

- intestinal concentration after maximum recommended oral dose [4]: about 7.8 µM
Compound: CN1CCC[C@@H]1CCO[C@](C)(c1ccccc1)c1ccc(Cl)cc1 [clemastine]
- brain penetration on co-perfusion with cyclosporine-A (P-gp [1]): not increased
- P-gp expression (P-gp/β-actin band intensity) relative to untreated cells (P-gp [2]): low expression of P-gp
- predicted P-gp inhibition (P-gp [3]): P-gp inhibitor
